PMC10394018
No constants are given. Whether binding was seen depends on the method and setting. Binding seen in cells or lysates may run through a third protein. Some results given as binding are weak or reduced against the parent protein; the word gives no strength. For some assays here: Sequences can lack the tags named with a protein. Values belong to the binder of their own block, whether it stands above or below them.

How the values were obtained:
Flag-tagged Bcl6 = Flag-tagged Bcl6 (UniProt P41183); experiment: co-IP; HEK293T cells co-transfected with Flag-tagged Bcl6 and HA-tagged Trim37 (full length or mutants), 24 h; RIPA lysis buffer (50 mM Tris base, 150 mM NaCl, 1% NP-40, 1 mM EDTA, 0.25% sodium deoxycholate, 0.1% SDS); anti-Flag agarose gel overnight at 4 °C; immunoblot with anti-HA and anti-Flag
[1] = target: Bcl6 with Twin-Strep-Tag at the C-terminus (Bcl6^TST knock-in mice) (mouse (endogenous in CD4+ T cells of knock-in mice)) (UniProt P41183); experiment: pull-down; WT and Bcl6^TST CD4+ T cells cultured under TFH-like conditions, stimulated with anti-CD3 and anti-ICOS for 4 h; affinity enrichment of the Twin-Strep-Tag with Strep-tactin; immunoblot with anti-Bcl6, anti-Trim37 and anti-actin

binding (Flag-tagged Bcl6): binds
B1: HA-tagged full-length Trim37 (protein, UniProt Q6PCX9 1-961)
chain: MDEQSVESIAEVFRCFICMEKLRDARLCPHCSKLCCFSCIRRWLTEQRAQCPHCRAPLQLRELVNCRWAEEVTQQLDTLQLCSLTKHEENEKDKCENHHEKLSVFCWTCKKCICHQCALWGGMHGGHTFKPLAEIYEQHVTKVNEEVAKLRRRLMELISLVQEVERNVEAVRNAKDERVREIRNAVEMMIARLDTQLKNKLITLMGQKTSLTQETELLESLLQEVEHQLRSCSKSELISKSSEILMMFQQVHRKPMASFVTTPVPPDFTSELVPSYDSATFVLENFSTLRQRADPVYSPPLQVSGLCWRLKVYPDGNGVVRGYYLSVFLELSAGLPETSKYEYRVEMVHQSCNDPTKNIIREFASDFEVGECWGYNRFFRLDLLANEGYLNRQNDTVILRFQVRSPTFFQKCRDQHWYITQLEAAQTGYIQQINNLKERLTIELSRTQKSRDLSPPDNHLSPQNDDSPETRTKKAGSCSDMLLEGGPTCASVRETKEDEDEEEKIQNEDYHHELSDGDLDLDLVGEDEVNHLDGSSSSASSTATSNTEENDIDEETMSGENDVEYNSMELEEGELMEDAAAAGPPGSSHSYVGASSRMSRRTHLCSAATSSLLDIDPLILIHLLDLKDRSSMENLWGLQPRPSASLLQPTASYSRKDKDQRKQQAMWRVPSDLKMLKRLKTQMAEVRCMKTDVKTTLSDIKGSSVASTDMQTNLFCADQAALTTCGPENSGRLQDLGMELLAKSSVAGCYIRNPTNKKNSPKSARAIAGSLSLRRAVDSGENSRSKGDCQVLAEGSSGSSQSGSRHSSPRALTHGIIGDLLPKSEDRQCKALDSDAVVVAVFNGLPTVEKRRKMVTLGTNAKGGRLEGMQMADLESHSEAGEVQPTLPEGASAAPEEGMSSDSDIECDTENEEQEEHTSMGAFNDPFLAQPPDEDSHSSFPDGEQIDPENLHFNPDEGGGR

binding [1]: binds
B2: Trim37 (endogenous, mouse CD4+ T cells) (protein, UniProt Q6PCX9 1-961)
chain: B1 chain
